Measurements taken from the supplement of paper PMC3334620.
Over roughly 33,000 sequences, “E-score (-0.5 to 0.5)” has its median near -0.0059; the highest 2% begin near 0.26. Some of the results follow.

What follows are sequences tested against T1, Cin5 (UniProt P40917) (assay: PBM E-score (8-mer binding enrichment) (E-score (-0.5 to 0.5)); higher = stronger / more preferred TF binding). Settings: protein concentration: 100 nM; construct: GST-full length.
T1 sequence: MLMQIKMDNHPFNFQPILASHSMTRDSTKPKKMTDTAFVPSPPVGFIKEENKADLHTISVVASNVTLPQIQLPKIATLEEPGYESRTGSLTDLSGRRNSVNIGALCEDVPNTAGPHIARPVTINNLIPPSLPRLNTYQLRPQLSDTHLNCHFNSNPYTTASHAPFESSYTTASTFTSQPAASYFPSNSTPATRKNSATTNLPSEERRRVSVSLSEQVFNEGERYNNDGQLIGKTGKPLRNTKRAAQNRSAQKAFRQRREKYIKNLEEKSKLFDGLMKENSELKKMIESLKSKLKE
How it was run: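 Universal all-10-mer Agilent arrays, fresh or stripped once, were converted to double-stranded form by primer extension. GST-tagged yeast transcription factors from PURExpress in vitro transcription/translation, full-length or DNA-binding domain only, were applied at about 100-200 nM and detected with fluorescent anti-GST. After masliner normalisation, the Universal PBM Analysis Suite scored each ungapped eight-base word together with its reverse complement by E-score.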
In the case of CGAGTTAG, the “PBM E-score” value is reported as 0.0686. With GACAGGGA the “PBM E-score” value was -0.113. With AGCGGGGG the “PBM E-score” value was -0.366. CAGGCGAA was tested, and the “PBM E-score” value was -0.0664. AATAGTAA was tested, and the “PBM E-score” value was 0.27. With ATGGCCCG the “PBM E-score” value was -0.0742. AAGGCTCA was tested, and the “PBM E-score” value was -0.137. For AAGTTGCC, the “PBM E-score” value was -0.0351. GCTGACAC was tested, and the “PBM E-score” value was 0.0863. In the case of TACTCTAA, the “PBM E-score” value is reported as 0.043. For AGGGGTCA, the “PBM E-score” value was -0.0837. In the case of CATTCGTA, the “PBM E-score” value is reported as 0.0849. With ACATCATG the “PBM E-score” value was 0.0711. For CCTGCAAG, the “PBM E-score” value was -0.215. CGAAGACA was tested, and the “PBM E-score” value was -0.0454. In the case of AGGCACTG, the “PBM E-score” value is reported as -0.0822. With TGACGGAA the “PBM E-score” value was 0.24. With AGAGCCCT the “PBM E-score” value was -0.266. AACGCGCT was tested, and the “PBM E-score” value was -0.0706. With CCACTGGC the “PBM E-score” value was -0.0753. For GCAAATTA, the “PBM E-score” value was 0.115. In the case of CGGCGAGC, the “PBM E-score” value is reported as 0.0191. For GCGATAAA, the “PBM E-score” value was 0.14. In the case of ACTGGGAG, the “PBM E-score” value is reported as -0.0689. In the case of CGATCAAG, the “PBM E-score” value is reported as -0.0749. AGTTACTA was tested, and the “PBM E-score” value was 0.0688. With GACTAGGA the “PBM E-score” value was -0.0728. CTGGCCTA was tested, and the “PBM E-score” value was -0.097. GAGCAACA was tested, and the “PBM E-score” value was -0.148. With CACGGCTA the “PBM E-score” value was -0.154. For AACTATCG, the “PBM E-score” value was 0.0548. GCGAGATA was tested, and the “PBM E-score” value was 0.0992. With TCGGACCA the “PBM E-score” value was -0.084. In the case of CTATGACC, the “PBM E-score” value is reported as -0.102. In the case of ACGAGAGC, the “PBM E-score” value is reported as -0.028. In the case of AGGGCTAA, the “PBM E-score” value is reported as -0.113. With ACTAGCTA the “PBM E-score” value was 0.0677. For CCTTTCGA, the “PBM E-score” value was -0.125. In the case of GCGCTTTA, the “PBM E-score” value is reported as 0.0372. CGCTTCAA was tested, and the “PBM E-score” value was -0.1. AGTTCTTC was tested, and the “PBM E-score” value was -0.0185. In the case of ACTACACG, the “PBM E-score” value is reported as 0.137. For ATCTTTTG, the “PBM E-score” value was -0.0757. For GATACCCA, the “PBM E-score” value was 0.0476. For AACGCTCC, the “PBM E-score” value was -0.123. In the case of GACCCACC, the “PBM E-score” value is reported as 0.00764. In the case of AAAGTGAT, the “PBM E-score” value is reported as -0.00439. For CAATCTGG, the “PBM E-score” value was 0.0546. In the case of CACATTAA, the “PBM E-score” value is reported as 0.102. In the case of TAGATCAA, the “PBM E-score” value is reported as 0.0289. With GCACGATA the “PBM E-score” value was 0.105. With AAAGCGTA the “PBM E-score” value was -0.0195. For ACTAAAGC, the “PBM E-score” value was 0.017. In the case of GCATGTAA, the “PBM E-score” value is reported as 0.057. For AGCCTGAC, the “PBM E-score” value was -0.191. In the case of ACCTCTCT, the “PBM E-score” value is reported as -0.0644. For ATCAGGCA, the “PBM E-score” value was 0.0396. With AAACAGCC the “PBM E-score” value was -0.0263. GCTACGAA was tested, and the “PBM E-score” value was 0.00847. For ATGATTGG, the “PBM E-score” value was 0.101. ACTCATCC was tested, and the “PBM E-score” value was 0.0731. CATACCTC was tested, and the “PBM E-score” value was -0.0152. In the case of ACGTCTAT, the “PBM E-score” value is reported as -0.0448. With CGTCCGGA the “PBM E-score” value was 0.00776. For CCTGGGCA, the “PBM E-score” value was -0.326. With ATTAAGCG the “PBM E-score” value was 0.211. CACGTATA was tested, and the “PBM E-score” value was 0.0182. TAACCTCA was tested, and the “PBM E-score” value was -0.104. AAATCTGA was tested, and the “PBM E-score” value was 0.129. In the case of AGCTATGA, the “PBM E-score” value is reported as -0.0157. For CATCGGAC, the “PBM E-score” value was -0.221. For GCGGTGAA, the “PBM E-score” value was 0.0275. GGCAAACC was tested, and the “PBM E-score” value was -0.234. AGCGTTCA was tested, and the “PBM E-score” value was -0.164. ACCATCCA was tested, and the “PBM E-score” value was -0.13. For CCATCAAG, the “PBM E-score” value was -0.117. For GGACTCCA, the “PBM E-score” value was -0.206. With AGAAAACG the “PBM E-score” value was 0.106. For CCCCATGA, the “PBM E-score” value was -0.0747. CCGACACA was tested, and the “PBM E-score” value was -0.00708. With AGGCCGCA the “PBM E-score” value was -0.133. ATTATATA was tested, and the “PBM E-score” value was 0.333. In the case of CGATATCA, the “PBM E-score” value is reported as 0.11. With CACCGTCC the “PBM E-score” value was -0.0439. For AATCGCCG, the “PBM E-score” value was 0.0625. For GCCGGTGA, the “PBM E-score” value was -0.0128.
